PubChem BioAssay AID686943 – Drosophila RNAi Screening Center – 2013
The deposit covers about 23,000 reagents; this is an unselected part of those that have a named target and a result. 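Extra replicates exist only for a retested subset of genes; insulin dose and duration not given; both raised and lowered dpERK matter.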 The numbers tell different reagents against one gene apart. Not all columns of the deposit are shown. The record does not give: the amount of reagent, the time to read-out.

Purpose: 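Search across the genome for regulators of signalling from receptor tyrosine kinase to ERK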 (primary screen)
System: Drosophila S2R+ haemocyte-like cells expressing YFP-tagged ERK (Rolled)
Reagent: long dsRNA against Drosophila genes
Conditions: insulin stimulation versus unstimulated cells; dose and duration not given
Detection: 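Per-plate z-scores of phospho-ERK immunostaining normalised to YFP-tagged ERK, measured with and without insulin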
Direction: replicate 1, z-score of dpERK with insulin: higher = more active ERK per ERK-YFP after insulin

The first 3 records, to show the layout:
gene knocked down,reagent no.,"replicate 1, z-score of dpERK with insulin"
"Trpm (Transient receptor potential cation channel, subfamily M)",1,-0.83
"Trpm (Transient receptor potential cation channel, subfamily M)",2,-0.04
zormin,1,0.27

Main list, from the first entry:
gene knocked down,reagent no.,"replicate 1, z-score of dpERK with insulin"
"Trpm (Transient receptor potential cation channel, subfamily M)",1,-0.83
"Trpm (Transient receptor potential cation channel, subfamily M)",2,-0.04
zormin,1,0.27
zormin,2,0.12
zormin,3,-0.36
zormin,4,0.32
zormin,5,0.04
zormin,6,0.03
zormin,7,-0.19
CG3842,1,-0.41
swm (second mitotic wave missing),1,0.19
swm (second mitotic wave missing),2,-0.34
fon (fondue),1,-0.43
Loxl2 (Lysyl oxidase-like 2),1,0.29
p38b (p38b MAP kinase),1,1.08
Acp32CD (Accessory gland protein 32CD),1,0.08
CycH (Cyclin H),1,0.31
CycH (Cyclin H),2,-0.86
beat-Ib (beaten path Ib),1,1.07
CG42855,1,-0.23
PDZ-GEF (PDZ domain-containing guanine nucleotide exchange factor),1,-1.53
CG10638,1,0.9
CG14829,1,0.86
CG10365,1,0.27
Drep1 (DNA fragmentation factor-related protein 1),1,-0.16
CG8298,1,0.21
CG34367,1,0.31
CG34367,2,-0.86
CG4218,1,-0.43
Plc21C (Phospholipase C at 21C),1,-0.99
CG12107,1,0.64
SCCRO3 (Squamous cell carcinoma-related oncogene 3),1,0.43
whe (what else),1,0.21
Cyp4p3 (Cytochrome P450 4p3),1,0.54
Jhbp2 (Juvenile hormone binding protein 2),1,-0.77
PGAP3 (Post-GPI attachment to proteins 3),1,0.25
Rsph9 (Radial spoke head protein 9),1,-0.1
CG5050,1,0.43
Cht6 (Chitinase 6),1,-0.45
Cht6 (Chitinase 6),2,-0.2
Cht6 (Chitinase 6),3,1.85
